In test [1] the target is recombinant His-tagged CAB063 (Chlamydia abortus) (UniProt Q5L747). Kind of test: affinity purification with mass spectrometry; only the target purified.
Test [2] has as its target CAB063 of Chlamydia abortus S26/3, as made by the bacteria in experimentally infected HeLa cells (Chlamydia abortus S26/3 (endogenous in the bacteria that infect the HeLa cells)) (UniProt Q5L747). Kind of test: affinity purification with mass spectrometry.

Sequences of proteins named here, by UniProt entry; tags and fusion partners are left off. Residues count along the entry.
UniProt Q5L747: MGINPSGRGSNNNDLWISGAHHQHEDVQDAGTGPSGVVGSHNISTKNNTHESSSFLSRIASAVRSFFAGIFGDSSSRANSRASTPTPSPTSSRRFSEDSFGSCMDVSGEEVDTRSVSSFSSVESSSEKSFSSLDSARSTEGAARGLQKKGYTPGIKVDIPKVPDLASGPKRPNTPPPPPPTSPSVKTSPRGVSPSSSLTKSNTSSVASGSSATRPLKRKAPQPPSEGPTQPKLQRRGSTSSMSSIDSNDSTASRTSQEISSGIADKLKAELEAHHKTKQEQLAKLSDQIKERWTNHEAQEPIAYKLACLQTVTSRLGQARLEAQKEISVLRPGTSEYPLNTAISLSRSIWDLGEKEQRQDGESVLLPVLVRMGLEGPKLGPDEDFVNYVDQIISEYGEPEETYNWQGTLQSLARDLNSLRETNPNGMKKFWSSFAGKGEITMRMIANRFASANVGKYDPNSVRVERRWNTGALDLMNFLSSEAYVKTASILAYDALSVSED
UniProt P02545, residues 1-646: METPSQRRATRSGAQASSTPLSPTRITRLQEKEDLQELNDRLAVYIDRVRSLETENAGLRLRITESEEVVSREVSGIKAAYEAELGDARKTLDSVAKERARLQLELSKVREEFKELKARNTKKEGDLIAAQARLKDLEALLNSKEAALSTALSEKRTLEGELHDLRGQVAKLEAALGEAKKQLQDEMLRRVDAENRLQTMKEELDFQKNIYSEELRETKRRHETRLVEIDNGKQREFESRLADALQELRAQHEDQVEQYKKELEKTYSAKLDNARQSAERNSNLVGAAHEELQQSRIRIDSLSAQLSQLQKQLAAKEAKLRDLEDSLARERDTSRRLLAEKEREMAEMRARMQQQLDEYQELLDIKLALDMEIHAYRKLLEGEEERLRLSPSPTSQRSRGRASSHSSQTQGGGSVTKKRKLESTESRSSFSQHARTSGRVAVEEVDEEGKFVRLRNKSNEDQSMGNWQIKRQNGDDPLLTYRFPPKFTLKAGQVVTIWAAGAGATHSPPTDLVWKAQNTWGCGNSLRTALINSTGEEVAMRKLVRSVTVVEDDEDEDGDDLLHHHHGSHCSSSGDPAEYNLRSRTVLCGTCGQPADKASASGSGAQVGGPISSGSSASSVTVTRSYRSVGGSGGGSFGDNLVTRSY

Results are given in words; binding and its absence hold for the method and conditions named. In cells and extracts the contact can be indirect. These calls come from enrichment with a bait or labelling near it, and not all partners need be listed.

With “human lamin A/C (pre-lamin A/C) (from UniProt P02545 1-646)”, the binding entry in test [1] is given as “binds”.

B1: C. abortus chaperone DnaK (heat shock protein 70, HSP70) (protein, UniProt Q8GH79 1-659)
chain: MSEQKKSSKIIGIDLGTTNSCVSVMEGGQAKVIVSSEGTRTTPSIVAFKGNETLVGIPAKRQAVTNPAKTLASTKRFIGRKYSEVESEIKTVPYQVASGSNGDVVFPIDGKQFTPEEIGAQVLIKMKETAEAYLGEPVTEAVITVPAYFNDSQRASTKDAGRIAGLDVKRIIPEPTAAALAYGIDKAGDKKIAVFDLGGGTFDISILEIGDGVFEVLSTNGDTHLGGDDFDEVIIKWMIEEFQKQEGIDLSKDNMALQRLKDAAEKAKIELSGMSSTEINQPFITMDANGPKHLTLTLTRAHFEKLASNLIERTKAPCQKALADAKLAASDIDDVLLVGGMSRMPAVQEVVKSIFGKEPNKGVNPDEVVAIGAAIQGGVLGGEVKDVLLLDVIPLSLGIETLGGVMTPLVERNTTIPTQKKQIFSTAADNQPAVTIVVLQGERPMAKDNKEIGRFDLTDIPPAPRGHPQIEVTFDIDANGILHVSAKDAASGREQKIRIEASSGLKEDEIQRMINDAEKNKEEDKKRREASDVRNEADSMIFRAEKAISDYKENIPESLTKEIEERIEKVRSALKEDAPTEKIKEASDELSRHMQKIGEAMQSQSASAAANAQDGPNINTEDLKKHSFSTKPPTGNSSSSANNENIEEADVEIVDKPND
For the molecule B1, the binding result in test [2] is recorded as “binds”.

Values taken from paper PMC7261910.
